# The supplement of paper PMC12873370
# The other results are listed elsewhere or left out. Many values rest on one well or one pass, so single values are uncertain.
# Key:
# [1] = system: MEPP (mouse ovarian epithelium Trp53/Pten KO); test: cell viability relative to untreated (fraction); higher = less growth inhibition; conditions: 5 µM; 3 days
# [2] = system: PREPP (mouse prostate epithelium Trp53/Pten KO); test: as above; conditions: 5 µM; 3 days
compound,measurement,setting,value
C1CCN2C[C@@H]3C[C@@H](CN4CCCC[C@@H]34)[C@H]2C1,cell viability,[1],0.907
same,cell viability,[2],1
C=C1CC[C@H](O)C/C1=C/C=C1\CCC[C@]2(C)[C@@H]([C@H](C)/C=C/[C@H](C)C(C)C)CC[C@@H]12,cell viability,[1],1.03
same,cell viability,[2],1.06
CCCCCCCCCCCCCCCCCCOCC(O)CO (centres undefined),cell viability,[1],0.923
same,cell viability,[2],0.901
O[C@@H]1[C@H](O)[C@H](O)CO[C@H]1O,cell viability,[1],1.09
same,cell viability,[2],0.947
COc1cc(C[C@H]2C(=O)OC[C@@H]2Cc2ccc(OC)c(OC)c2)ccc1O,cell viability,[1],0.871
same,cell viability,[2],0.853
O=NO,cell viability,[1],1.35
same,cell viability,[2],1.03
CC(C)OC(=O)C(C(=O)OC(C)C)=C1SC=CS1,cell viability,[1],1
same,cell viability,[2],0.842
NC(=O)c1[nH]cnc1N,cell viability,[1],1.28
same,cell viability,[2],1.03
O=C(O)c1ccc2c(c1)C(=O)c1ccccc1C2=O,cell viability,[1],0.961
same,cell viability,[2],1.14
C[n+]1cccc(C(N)=O)c1,cell viability,[1],1.04
same,cell viability,[2],0.978
CCCCCCCCCCCC(=O)O,cell viability,[1],1.01
same,cell viability,[2],1.06
O=C(O)CC(=O)O,cell viability,[1],0.889
same,cell viability,[2],0.975
O=C(O)c1cccnc1,cell viability,[1],0.848
same,cell viability,[2],0.922
Nc1nc2c(ncn2[C@@H]2O[C@H](COP(=O)(O)O)[C@@H](O)[C@H]2O)c(=O)[nH]1,cell viability,[1],0.942
same,cell viability,[2],0.87
Oc1ccc(Cc2nc3c(Cc4ccccc4)nc(-c4ccc(O)cc4)cn3c2O)cc1,cell viability,[1],1.12
same,cell viability,[2],0.936
CC(C)=CCC[C@](C)(O[C@@H]1O[C@H](CO[C@@H]2O[C@H](CO)[C@@H](O)[C@H](O)[C@H]2O)[C@@H](O)[C@H](O)[C@H]1O)[C@H]1CC[C@]2(C)[C@@H]1[C@H](O)C[C@@H]1[C@@]3(C)CC[C@H](O[C@@H]4O[C@H](CO)[C@@H](O)[C@H](O)[C@H]4O[C@@H]4O[C@H](CO)[C@@H](O)[C@H](O)[C@H]4O)C(C)(C)[C@@H]3CC[C@]12C,cell viability,[1],1.16
same,cell viability,[2],1.06

# Some of the entries so far, with bars between the fields.
compound | measurement | setting | value
NC(=O)c1[nH]cnc1N | cell viability | [2] | 1.03
O=C(O)c1ccc2c(c1)C(=O)c1ccccc1C2=O | cell viability | [1] | 0.961
same | cell viability | [2] | 1.14
C[n+]1cccc(C(N)=O)c1 | cell viability | [1] | 1.04
same | cell viability | [2] | 0.978
CCCCCCCCCCCC(=O)O | cell viability | [1] | 1.01
same | cell viability | [2] | 1.06
O=C(O)CC(=O)O | cell viability | [1] | 0.889
